# About 760 (0.19%) of roughly 390,000 compounds were called active. The inconclusive results got no clear call from the source; some entries with a clear call stand among them for comparison. The call rests on the fitted dose curve; in most records, active means well fitted inhibition curve with a large enough effect; inconclusive means small, poorly fitted or top-dose-only effect; inactive means flat fitted curve, though single readings scatter. A potency beside an inconclusive call is a rough fit, not a confirmed value.
# Assay: qHTS for Inhibitors of Vif-A3F Interactions: qHTS; further: nearly all actives have a fitted effect of over 65% in size; on activity, negative = active: % of control where 0% means no effect
# Settings: HeLa A3F-eYFP + Vif (tagged APOBEC3F with the HIV-1 protein that degrades it), YFP fluorescence increase; series mostly up to 46.1 µM; activity, negative = active: at the top concentration
# Procedure, shortened: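 HeLa cells stably expressing A3F-eYFP plus Vif, plated and incubated overnight at 37 deg C, then exposed to compounds overnight at 37 deg C. Blocked degradation read as raised yellow fluorescence (Ex 488/Em 500-530).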
# Potency means the concentration at half of the fitted maximal effect.
SMILES,"activity, negative = active",Potency
CN(c1ccccc1)S(=O)(=O)c1nnc(NC(=O)c2ccccc2)s1,inactive: -3.07%,–
NC(=O)CC(NC(=O)Cc1cccc2ccccc12)c1ccc(NC2CCCCCC2)c([N+](=O)[O-])c1 (stereo unspecified),–,"inconclusive: 35.5 µM [inhibitor, single point]"
O=C(CCCCCn1c(=S)[nH]c2ccc(N3CCOCC3)cc2c1=O)NCc1cccc(Cl)c1,–,"inconclusive: 35.5 µM [inhibitor, single point]"
CCC(=O)OCC(=O)Nc1cc(S(=O)(=O)N(C)C)ccc1Cl,–,"inconclusive: 7.08 µM [inhibitor, partial curve, poor fit]"
COc1ccc(Cn2c(=N)c(C(=O)NC3CCCCC3)cc3c(=O)n4ccccc4nc32)cc1,–,"inconclusive: 35.5 µM [inhibitor, single point]"
N#Cc1c(Sc2ncc(C(F)(F)F)cc2Cl)nsc1C/C=N\OCc1ccccc1Br,–,"inconclusive: 25.1 µM [inhibitor, single point]"
CCOc1ccccc1NC(=O)Cn1cc(C(=O)c2ccc(Cl)cc2)c(=O)c2ccc(C)nc21,–,"inconclusive: 11.2 µM [inhibitor, single point]"
CC(C)CCN1C(=O)c2cccc3c(N)ccc(c23)C1=O,–,"inconclusive: 3.55 µM [inhibitor, partial curve, poor fit]"
C=CCN1C(=O)/C(=C/c2ccc(O)c(OC)c2)S/C1=N/c1nccs1,–,active: 31.6 µM
COc1ccccc1CNc1ccc(-c2nc(-c3ccco3)no2)cc1[N+](=O)[O-],–,"inconclusive: 2.24 µM [inhibitor, partial curve, poor fit]"
Cc1ccc(-n2c(C)cc(/C=N/NC(N)=S)c2C)cc1,inactive: 5.89%,–
Cc1cccc(CN(C)C)c1CC(O)(c1ccccc1)c1ccccc1,inactive: 1.26%,–
CCOCCCNc1nc2c(C)cccn2c(=O)c1/C=C1\SC(=S)N(CC(C)C)C1=O,–,"inconclusive: 3.16 µM [inhibitor, partial curve, poor fit]"
OC(CCCN1CCCCC1)(c1ccccc1)c1ccc(C(F)(F)F)cc1 (stereo unspecified),inactive: -7.84%,–
Cc1cc(C(=O)Nc2ccc(Cl)cc2)c2ccccc2n1,–,"inconclusive: 35.5 µM [inhibitor, single point]"
O=C(CCn1ccc2cc(S(=O)(=O)N3CCCC3)ccc21)NCc1cccc(Br)c1,inactive: 7.23%,–
Cc1cccc(NC(=S)NCCc2ccc3c(c2)OCCO3)c1C,–,"inconclusive: 20 µM [inhibitor, partial curve, poor fit]"
O=C(NCC1CCCCC1)c1ccc(Cl)c(S(=O)(=O)N2CCOCC2)c1,inactive: 6.86%,–
CC(C)C(=O)N=C1SC2CS(=O)(=O)CC2N1Cc1ccc(Cl)cc1 (stereo unspecified),–,"inconclusive: 35.5 µM [inhibitor, single point]"
Cc1c2ccccc2nc2c(F)c(NC(C)C)c(F)c(F)c12,–,active: 12.6 µM
CCOC(=O)C1CCN(C(=O)c2ccc3c(c2)S(=O)(=O)c2ccccc2C3=O)CC1,–,"inconclusive: 8.91 µM [inhibitor, partial curve, poor fit]"
Cc1c(C(=O)N/N=C/c2ccc(-c3ccccc3[N+](=O)[O-])o2)sc(N)c1C#N,–,"inconclusive: 10 µM [inhibitor, partial curve]"

SMILES,"activity, negative = active",Potency
CSC1=NSC2=NC(=O)/C(=C\c3coc4ccccc4c3=O)C(=N)N12,–,"inconclusive: 35.5 µM [inhibitor, single point]"
C[C@@H]1CN([C@H](C)CO)C(=O)c2cc(NC(=O)Cc3ccccc3)ccc2O[C@H]1CN(C)Cc1ccc(Oc2ccccc2)cc1,inactive: -2.84%,–
O=C(Nc1ccc(S(=O)(=O)Nc2ccccn2)cc1)c1cccc(Cl)c1,–,"inconclusive: 31.6 µM [inhibitor, partial curve, poor fit]"
Cc1ccc(S(=O)(=O)N(C)c2ccc(OCc3cccc(C)c3)cc2)cc1,–,"inconclusive: 6.31 µM [inhibitor, single point]"
COc1cc(/C=C/C(=O)c2ccc3c(c2)OCO3)cc(Cl)c1O,–,"inconclusive: 3.16 µM [inhibitor, partial curve, poor fit]"
CCN(CC)c1ccc(/C=C/c2cc(-c3ccccc3)c3ccccc3n2)cc1,–,"inconclusive: 6.31 µM [inhibitor, partial curve, poor fit]"
CC(C)(C)c1ccc(C(=O)N2CCN(S(=O)(=O)c3ccc(Br)s3)CC2)cc1,–,"inconclusive: 35.5 µM [inhibitor, single point]"
COc1ccccc1NC(=O)c1ccccc1C(=O)Nc1ccccc1OC,inactive: -7.86%,–
COc1ccc(S(=O)(=O)NCc2c(-c3ccccc3)noc2C)c(OC)c1,inactive: 11.4%,–
O=[N+]([O-])c1ccc(C=NNc2ccc(S(=O)(=O)O)cc2)cc1,inactive: 0.804%,–
O=C(Nc1ccc(N2CCOCC2)c(S(=O)(=O)Nc2ccc(Cl)cc2)c1)c1cnccn1,inactive: -8.84%,–
Cc1cc(=O)oc2cc(OC(=O)C3CCN(C(=O)c4ccc(F)cc4)CC3)ccc12,–,"inconclusive: 2.82 µM [inhibitor, partial curve, poor fit]"
CC(NC(=O)c1ccc(Nc2nc3ccccc3n3nnnc23)cc1)c1ccccc1 (stereo unspecified),–,active: 7.08 µM
COc1cccc(N2CC(NC(=O)c3ccc4c(c3)OCO4)CC2=O)c1 (stereo unspecified),inactive: 6%,–
NC(=O)CC(NC(=O)c1ccc(Br)cc1)c1ccc(NC2CCCCC2)c([N+](=O)[O-])c1 (stereo unspecified),–,"inconclusive: 35.5 µM [inhibitor, single point]"
CCCCOc1ccc(C(=O)CCN2CCCCC2)cc1,inactive: 4.04%,–
COc1ccc(NC(=S)NC(=O)C2CCC2)cc1,–,"inconclusive: 20 µM [inhibitor, partial curve, poor fit]"
CCc1ccccc1NC(=O)Nc1cccc(F)c1,–,"inconclusive: 3.16 µM [inhibitor, single point]"
C[C@@H]1CN([C@@H](C)CO)S(=O)(=O)c2ccc(Br)cc2O[C@H]1CN(C)Cc1ccc(-c2ccccc2)cc1,–,"inconclusive: 17.8 µM [inhibitor, single point]"
Cc1ccc(NC(=O)C2CCN(S(=O)(=O)c3ccc(Cl)c(C(F)(F)F)c3)CC2)nc1,–,"inconclusive: 35.5 µM [inhibitor, single point]"
O=C(O)/C=C/C(=O)N1N=C(c2ccco2)CC1c1ccco1 (stereo unspecified),–,"inconclusive: 35.5 µM [inhibitor, single point]"
Nc1nc(NCCCN2CCOCC2)nc(NCc2ccccc2)c1[N+](=O)[O-],–,"inconclusive: 35.5 µM [inhibitor, single point]"

SMILES,"activity, negative = active",Potency
COc1cccc(N(C(=O)Cn2nnc(-c3ccc(C)o3)n2)C(C(=O)NC2CCCC2)c2ccncc2)c1 (stereo unspecified),–,"inconclusive: 28.2 µM [inhibitor, single point]"
O=C(C[n+]1cccc(CNC(=O)c2ccc(OC(F)F)cc2)c1)Nc1ccc(F)cc1,–,"inconclusive: 15.8 µM [inhibitor, partial curve, poor fit]"
COc1ccc(NC(=O)c2cccc(OC(F)F)c2)cc1Cl,inactive: -6.8%,–
COc1ccnc(CSC(N)=Nc2ccccc2OC)c1,inactive: 6.82%,–
CC(=O)c1sc2nc(-c3cccs3)cc(C(F)(F)F)c2c1N,–,active: 5.01 µM
FC(F)Oc1ccccc1/C=N/n1cnc2ccccc21,inactive: 6.3%,–
O=C(O)c1ccccc1Nc1ccc([N+](=O)[O-])cc1C(=O)O,–,"inconclusive: 35.5 µM [inhibitor, single point]"
COC(=O)Cn1cc(/C=C/c2cc[n+](C)cc2)c2ccccc21,–,"inconclusive: 20 µM [inhibitor, partial curve, poor fit]"
Nc1nnc(SCc2nc3scc(-c4ccccc4)c3c(=O)[nH]2)s1,–,"inconclusive: 35.5 µM [inhibitor, single point]"
COCCCNc1nc2ccccc2nc1NS(=O)(=O)c1ccccc1,–,active: 22.4 µM
C/C=C/C=C/C(=O)[C@@H]1[C@@H]([C@]2(C)OC(=O)C(C)=C2O)[C@H]2/C(=C(O)/C=C/C=C/C)C(=O)[C@]1(C)C(=O)C2(C)O (stereo partly specified),–,"inconclusive: 31.6 µM [inhibitor, single point]"
Cc1cc(=O)oc2cc(NC(=O)Cc3ccccc3)ccc12,–,"inconclusive: 12.6 µM [inhibitor, partial curve, poor fit]"
CCOc1ccc(CN(C)CC(O)COC(c2ccc(OC)cc2)c2ccc(OC)cc2)cc1 (stereo unspecified),inactive: 0.403%,–
O=C(CSc1nc(-c2cccs2)cc(C(F)(F)F)n1)Nc1ccccc1Cl,–,"inconclusive: 3.16 µM [inhibitor, single point]"
Cc1ccc(C(=O)C(OC(=O)CCC(=O)Nc2cccc(C)c2)c2ccccc2)cc1 (stereo unspecified),–,"inconclusive: 2.24 µM [inhibitor, partial curve, poor fit]"
Cc1ccc(-c2csc3nc(CN(C)Cc4ccccc4)[nH]c(=O)c23)cc1,–,"inconclusive: 35.5 µM [inhibitor, single point]"
Cc1cnn(C(=O)c2cc(-c3ccccn3)nc3ccc(Cl)cc23)c1,–,"inconclusive: 35.5 µM [inhibitor, single point]"
S=C(NCc1ccco1)Nc1ccc(N2CCOCC2)cc1,inactive: 1.53%,–
CC(=NNc1nc2ccccc2o1)c1cc2ccccc2cn1,–,"inconclusive: 31.6 µM [inhibitor, single point]"
CC1CCC(N2CCN(c3ccc([N+](=O)[O-])cc3)CC2)CC1 (stereo unspecified),–,"inconclusive: 15.8 µM [inhibitor, single point]"
Clc1ccc(/C=N/NC(=Nc2ccccc2)c2ccccn2)c(Cl)c1,–,"inconclusive: 10 µM [inhibitor, partial curve, poor fit]"
COc1ccc(Nc2nc(N3CCOCC3)nc(N3CCOCC3)n2)cc1Cl,inactive: 0.855%,–
